Test results: article PMC9286316 (ACS Chemical Biology, 2021)
Some peptides are written in HELM: one residue between dots, names in brackets for other building blocks, links after the first $.

Assay: general procedure: Fmoc solid-phase peptide synthesis
Conditions: oxidative folding step, 280 nm

Substance	final HPLC purity [%]
PEPTIDE1{G.L.P.V.C.G.E.T.C.V.G.G.T.C.N.T.P.G.C.K.C.S.W.P.V.C.T.R.N}$PEPTIDE1,PEPTIDE1,1:R1-29:R2|PEPTIDE1,PEPTIDE1,5:R3-9:R3|PEPTIDE1,PEPTIDE1,14:R3-19:R3|PEPTIDE1,PEPTIDE1,21:R3-26:R3$$$V2.0	93.2
PEPTIDE1{G.L.P.V.C.G.E.T.C.V.G.G.T.C.N.T.P.G.C.K.C.S.W.P.V.C.T.R.N}$PEPTIDE1,PEPTIDE1,1:R1-29:R2|PEPTIDE1,PEPTIDE1,5:R3-19:R3|PEPTIDE1,PEPTIDE1,9:R3-26:R3|PEPTIDE1,PEPTIDE1,14:R3-21:R3$$$V2.0	93.2
PEPTIDE1{N.G.L.P.V.C.G.E.T.C.V.G.G.T.C.N.T.P.G.C.K.C.S.W.P.V.C.T.R}$PEPTIDE1,PEPTIDE1,6:R3-20:R3|PEPTIDE1,PEPTIDE1,10:R3-22:R3|PEPTIDE1,PEPTIDE1,15:R3-27:R3$$$V2.0	> 90
PEPTIDE1{G.L.P.V.C.G.E.T.C.V.G.G.T.C.N.T.P.G.C.K.C.S.W.P.V.C.T.R.N}$PEPTIDE1,PEPTIDE1,1:R1-29:R2|PEPTIDE1,PEPTIDE1,5:R3-26:R3|PEPTIDE1,PEPTIDE1,9:R3-21:R3|PEPTIDE1,PEPTIDE1,14:R3-19:R3$$$V2.0	91.0
